Results published in the supplement of paper PMC3334620.
The full ranking holds about 33,000 sequences; the median of “E-score (-0.5 to 0.5)” is about -0.0034, and the highest 2% start at about 0.25. The list shows a part of the results.

molecular target: T1, Yap3 (UniProt P38749); assay: PBM E-score (8-mer binding enrichment) (E-score (-0.5 to 0.5)); higher = stronger / more preferred TF binding; conditions: protein concentration: 100 nM; construct: GST-full length
T1 sequence: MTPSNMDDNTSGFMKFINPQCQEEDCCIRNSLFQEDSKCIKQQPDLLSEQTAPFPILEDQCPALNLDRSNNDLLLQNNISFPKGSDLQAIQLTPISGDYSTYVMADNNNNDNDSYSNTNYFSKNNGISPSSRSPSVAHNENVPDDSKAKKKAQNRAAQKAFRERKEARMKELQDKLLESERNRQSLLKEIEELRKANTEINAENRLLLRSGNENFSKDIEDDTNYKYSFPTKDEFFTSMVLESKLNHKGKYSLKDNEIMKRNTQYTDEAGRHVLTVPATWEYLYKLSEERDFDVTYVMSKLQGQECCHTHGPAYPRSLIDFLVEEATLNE
How it was run: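 For each ungapped eight-base word taken together with its reverse complement, the Universal PBM Analysis Suite assigned an E-score. Binding data came from GST-tagged yeast transcription factors, applied at about 100-200 nM, on universal all-10-mer Agilent arrays made double-stranded by primer extension. Fluorescent anti-GST marked bound protein, and scans were normalised with masliner.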

Sequence	PBM E-score
CTATCACC	-0.0318
AGACGCTC	-0.253
AGATCCCA	-0.0651
GGCGAATA	0.0668
GCACTAAA	0.179
CAGCTGGA	0.102
ACTGGACG	-0.0457
GTTAACGA	0.167
ACCAGAGA	-0.00787
AGATTGTC	-0.0909
GGAGTCAA	-0.156
ACCGAATG	-0.0639
GCAACACA	-0.0278
AACCATGT	0.00383
ACCTCTGA	-0.0278
GAGAGGGC	-0.449
AAACGCCG	0.119
AGTCTAAC	-0.137
AACAATAA	0.179
ATCACCAT	0.13
CAACGGGG	-0.152
CCGTCAAG	-0.0289
GTATCGAC	0.0837
ATTCACCG	0.182
CCCAAGGA	-0.126

Sequence	PBM E-score
CTCGCCAC	0.0355
CATTTAAC	0.0928
ATCCATAA	0.258
AAAGGCCC	-0.021
AGCATTCA	0.0165
GATGCATC	0.139
ACATCAGA	0.0871
ACGGTAAT	0.0508
AGTGATTC	0.021
ATCTTGGG	0.062
AACCTGGC	-0.105
CAGTGAAG	-0.0604
CGAGATGA	-0.0283
CCCCTGGC	-0.307
CAAGGTGC	-0.163
ACTAATTC	0.178
GGTCACAA	-0.0419
GTAGAGTA	0.0372
GTCCCAAC	-0.105
GACTAATC	0.175
GCGAACTA	0.105
ACCATCAC	0.0126
ACGTTTCA	0.096
GGGTACAA	-0.0419
CGGCAAAG	-0.0725

Sequence	PBM E-score
CGACCGGC	-0.172
AGCATTGC	-0.181
AACGGAGG	-0.117
AGCCTGTA	-0.0823
GCGTAAGA	0.211
AGACGTGC	0.0139
CGCCTACC	-0.18
AACTCTGT	-0.0279
AAAATCCA	0.28
AATAGGCG	0.143
GACTACCC	-0.0996
GGACGTTA	0.0755
ACTTGATC	0.157
AGCATAAG	0.157
GTCCTACA	0.109
ATCACATC	0.131
AATCTGTA	0.085
ACATCCTG	0.186
GTTGGTCA	0.144
AACTAGCA	0.109
AGTAATCG	0.149
GGTATCCA	0.0469
AAACATCT	-0.0427
GCGTTCCC	-0.184
AGACTGCT	0.0597

A section from the list above, for reference:
Sequence	PBM E-score
ACCGAATG	-0.0639
GCAACACA	-0.0278
AACCATGT	0.00383
ACCTCTGA	-0.0278
GAGAGGGC	-0.449
AAACGCCG	0.119
AGTCTAAC	-0.137
AACAATAA	0.179
ATCACCAT	0.13
CAACGGGG	-0.152
CCGTCAAG	-0.0289
GTATCGAC	0.0837
ATTCACCG	0.182
CCCAAGGA	-0.126
CTCGCCAC	0.0355
CATTTAAC	0.0928
ATCCATAA	0.258
AAAGGCCC	-0.021
AGCATTCA	0.0165
GATGCATC	0.139
ACATCAGA	0.0871
ACGGTAAT	0.0508
AGTGATTC	0.021
ATCTTGGG	0.062
AACCTGGC	-0.105
CAGTGAAG	-0.0604
CGAGATGA	-0.0283
CCCCTGGC	-0.307
CAAGGTGC	-0.163
ACTAATTC	0.178
GGTCACAA	-0.0419
GTAGAGTA	0.0372
GTCCCAAC	-0.105
GACTAATC	0.175
GCGAACTA	0.105
ACCATCAC	0.0126
ACGTTTCA	0.096
GGGTACAA	-0.0419
CGGCAAAG	-0.0725
CGACCGGC	-0.172
AGCATTGC	-0.181
AACGGAGG	-0.117
AGCCTGTA	-0.0823
GCGTAAGA	0.211
AGACGTGC	0.0139
CGCCTACC	-0.18
AACTCTGT	-0.0279

The results go on:

Sequence	PBM E-score
AGATCTGC	-0.147
CCCAGAGG	-0.318
CGCATTTA	0.126
ATCCCACC	0.0276
CCCGGACG	-0.249
ATCACCAA	0.112
AGACCGCC	-0.0683
ATATCCCG	0.0419
TTCCGCAA	0.00145
AGGCGCAA	0.116
ATCCGAAG	0.00945
AGAACGTG	0.0554
AATAACAT	0.164
CAGGCGCA	-0.0934
CTTATTGC	0.0255
AAGTATGT	0.11
AACTTCGA	0.152
CTCAGATA	0.19
AATTTACT	0.271
ACATCGAC	0.0194
TAGGGTCA	-0.117
TTGCGCAA	0.141
TAGGCGGA	0.121
AGCAGTGC	-0.0942
CGGTGGGC	-0.0629

Sequence	PBM E-score
CAACCTTG	0.119
GTTTGCTA	0.104
CCACTATC	0.012
GTAACATA	0.0827
GTATGACA	0.0895
ATGAGAGC	-0.0797
CTTCCGCC	-0.184
ATCATTGA	0.11
GAACTTAA	0.0877
TTAACGAA	0.179
AGGCACGC	-0.119
GAACCCTC	-0.259
GGTTCCGA	-0.0315
CATAGTAC	-0.0332
GTACCCAC	0.0029
CTTGTAGA	-0.148
CAGTTTCA	-0.0336
CGTCTATC	-0.0275
CGAACTAG	-0.0523
CAGTACTC	-0.151
CACACATA	0.0181
AACGGTGT	0.0135
GCAGTGAA	0.225
CCGTGACC	-0.274
CTGTGCAA	-0.103

Sequence	PBM E-score
AACCCAGA	-0.0116
ACCATTAA	0.26
ATTCCTTA	0.138
AACTAATG	0.23
CCTGAGCG	-0.225
TACGTCAA	0.139
ATACCAAT	0.0537
CTTCGACC	-0.0443
AATTTGCC	0.108
TATTCTCA	0.142
AAATACGG	0.0609
CAATGCCG	0.0489
GATTAGCC	0.0735
CCACCGTA	-0.0745
CTGACGCA	-0.12
GAAGGCTC	-0.261
CCCTAGTC	-0.171
AGGCTCTC	-0.246
ATCAGCGG	-0.0705
AACTTATA	0.203
ACGAGTAG	-0.0142
CAGCACGG	-0.109
ATAAGAAC	0.289
CACATGAA	0.0106
TCTTCGAA	0.00967

Sequence	PBM E-score
CTAAGAAC	0.172
CGAGTGGC	-0.04
ACATATCA	0.254
CTGGAAAG	-0.0773
CTATGGAA	-0.0751
CTTCCGCA	-0.104
CTTGGTTC	0.146
AGTTCGTA	0.174
TGCGTCCA	-0.179
ACGTCGTC	-0.0819
CACAATAC	0.114
AGCCAAAA	0.125
ACCTTGGC	-0.109
CAAACATG	0.0155
CTGCCTCC	-0.149
CTCAGGGC	-0.178
GAAACGCA	0.0614
TTAACCAA	0.182
CCTCTCAC	-0.0776
GACTATGA	-0.00301
CGGCATAA	0.0649
CCCAAGTC	-0.174
